# Numbering of substitutions follows the chain as printed. Names may count otherwise. Results are given in words; binding and its absence hold for the method and conditions named. Some entries that bind do so weakly or less than the wild type.
# Chains of the proteins cited; added tags and fusions are not shown. Residues count along the entry.
# UniProt P27038, residues 20-513: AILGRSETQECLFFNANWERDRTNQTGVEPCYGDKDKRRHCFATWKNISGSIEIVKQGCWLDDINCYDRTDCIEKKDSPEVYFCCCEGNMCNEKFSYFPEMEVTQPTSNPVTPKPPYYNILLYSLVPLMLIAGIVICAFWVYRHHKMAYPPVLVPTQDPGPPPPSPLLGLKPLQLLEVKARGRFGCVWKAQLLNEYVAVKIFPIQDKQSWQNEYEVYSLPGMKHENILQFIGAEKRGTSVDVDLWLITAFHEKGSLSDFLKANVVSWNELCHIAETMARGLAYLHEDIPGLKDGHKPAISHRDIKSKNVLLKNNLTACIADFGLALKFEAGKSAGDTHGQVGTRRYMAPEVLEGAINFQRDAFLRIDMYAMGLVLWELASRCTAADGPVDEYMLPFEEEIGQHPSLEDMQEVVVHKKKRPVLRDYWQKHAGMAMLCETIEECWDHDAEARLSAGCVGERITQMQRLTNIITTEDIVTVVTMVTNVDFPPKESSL
# B1: wild type activin-A (ligand, human, UniProt P08476 311-426, looked up)
# chain: GLECDGKVNICCKKQFFVSFKDIGWNDWIIAPSGYHANYCEGECPSHIAGTSGSSLSFHSTVINHYRMRGHSPFANLKSCCVPTKLRPMSMLYYDDGQNIIKKDIQNMIVEECGCS
# notes: mature; As tracer it was radioiodinated by the chloramine T method; also called WT activin-A; wt activin-A
# B2: A/C-2 chimeric activin A/activin C protein (ligand, human, UniProt P08476 311-426, looked up)
# chain: GLECDGKVNICCKKQFFVSFKDIGWNDWIIAPSGYHANYCEGECPSHIAGTSGSSLSFHTAVLNLLKANTAAPFANLKSCCVPTKLRPMSMLYYDDGQNIIKKDIQNMIVEECGCS
# B3: activin-A (M108A) (ligand, human, UniProt P08476 311-426, looked up)
# chain: B1 chain with M108A
# notes: mature; Radioiodinated by the chloramine T method for the crosslinking study; also called M108A activin-A; M108A mutant
# B4: activin-A I63P (ligand, human, UniProt P08476 311-426, looked up)
# chain: B1 chain with I63P
# B5: activin-A I105E (ligand, human, UniProt P08476 311-426, looked up)
# chain: B1 chain with I105E
# B6: activin-A M91E (ligand, human, UniProt P08476 311-426, looked up)
# chain: B1 chain with M91E
# B7: activin-A M108E (ligand, human, UniProt P08476 311-426, looked up)
# chain: B1 chain with M108E
# B8: activin-A S60P (ligand, human, UniProt P08476 311-426, looked up)
# chain: B1 chain with S60P
# How the values were obtained:
# [1] = biological target: ActRII-myc transfected into 293T cells (UniProt P27038); test: DSS crosslinking of 125I-activin-A to 293T cells transfected with ActRII-myc, immunoprecipitation, autoradiography
# [2] = biological target: ActRII (type II activin receptor) transfected into 293T cells (UniProt P27038); test: competition binding, 125I-activin-A on intact 293T cells transfected with ActRII
# [3] = biological target: ActRII (type II activin receptor) transfected into 293T cells (UniProt P27038); test: competition binding on 293T cells transfected with ActRII (summing up of the earlier examples)
# [4] = biological target: ActRII-myc transfected into 293T cells (UniProt P27038); test: DSS crosslinking of 125I-M108A to 293T cells transfected with ActRII-myc, immunoprecipitation, autoradiography
binder,measurement,setting,value
B1,binding,[1],binds
B2,binding,[2],binds
B3,binding,[2],binds
same,binding,[3],binds
same,binding,[4],binds
B4,binding,[2],binds
B5,binding,[2],binds
B6,binding,[2],binds
B7,binding,[2],binds
B8,binding,[2],binds

# — US20060008846A1 (RESEARCH DEVELOPMENT FOUNDATION, published 2006)
